Inconclusive results, whose numbers are uncertain, are shown with a selection of clear calls. Potencies beside an inconclusive call are fits to weak or partial responses and may not hold up. Activity calls are given as the source filed them. Calls come from the whole dose curve; as a rule, active = well fitted inhibition curve with a large enough effect; inconclusive = small, poorly fitted or top-dose-only effect; inactive = no such curve, though single readings can be large or run the other way.
What follows are molecules tested against N-terminal Xaa-Pro-Lys N-methyltransferase 1 (Homo sapiens) (UniProt Q9BV86) (assay: qHTS Assay for Inhibitors of N-terminal methyltransferase 1 (NTMT1): MTaseGlo Confirmatory Screen, Round 2). Settings: NTMT1 enzyme, MTase-Glo SAH luminescence; series mostly up to 57.4 µM; activity change, negative = inhibition: at the top concentration.
Text: Assay Submitter (PI): Rong Huang Ph.D, Purdue University, West Lafayette, IN 47907
The N-terminal methytransferase 1 is the first methyltransferase that methylates protein alpha-N-amines and plays an important role in regulating cell mitosis, chromatin interactions and DNA repair. It is observed to be over-expressed in various cancer patient tissues like malignant melanoma and colorectal cancer tissues. Knockdown of NTMT1 in cancer cells causes cell mitotic defects and enhances sensitivity to DNA damaging chemotherapeutics. […] These critical cellular processes in which NTMT1 is implicated, coupled with emerging links to cellular dysfunction, strengthen the inference that NTMT1 is a compelling novel anticancer target. Progress have been made in understanding the molecular properties of NTMT1 and the biological consequences of protein alpha-N-terminal methylation, but there are no specific small molecule probes available for NTMT1 to fully characterize its MTase activity. To address this unmet need, a panel of assay is created and established to enable quantitative high-throughput screening (qHTS) for novel, potent, and selective small molecule NTMT1 inhibitors. Two orthogonal qHTS that use different reagents (ThioGlo vs. MTaseGlo) are developed for primary robotic screening against the NCATS chemical library of more than 400,000 small molecules. Identified inhibitors are reacquired, validated, and further characterized.
MTaseGlo Assay is a luminescence screen that measure the activity of methyltransferases based on the reaction product S-adenosyl homocysteine (SAH). The substrate SAM is converted to SAH upon enzyme activation. MTase-Glo reagent and detection solution convert SAH to ATP and measure the light from the luciferase reaction.
Early Translation Branch (ETB)
National Center for Advancing Translational Sciences (NCATS)
National Institute of Health (NIH)
NTMT1 enzyme, substrate SPKRIA, control peptide RCC1-6 is provided by the Huang laboratory.
In brief, 3 µL of enzyme mixture (final concentrations of 125 nM and 100 µM for NTMT1 and SAM, respectively) into all wells of a 1,536-well solid-bottom white plate (Greiner Bio One, Monroe, NC). 23 nL of DMSO or Ac-RCC1-10 (final concentration range 234 nM to 143 microM) was transferred via Wako Pin-tool (Wako Automation, Richmond, VA) and incubated (RT) for ~15 minutes. Next, 1 µL of substrate (final concentration 1 µM) or buffer was dispensed, and the reaction proceeded for 30 minutes (RT, protected from light) followed by a 1 microL addition of [5X] MTase-Glo Reagent(R). Samples were incubated (RT, protected from light) for 30 minutes to allow for SAH to be converted to ADP, followed by a 5 microL addition of [1X] MTase-Glo Detection Solution(R) to allow for ADP to be converted to ATP, which was then detected with a luciferase reaction. Samples were centrifuged for 15 seconds at 1,000 RPM's, followed by a RT incubation for 30 minutes. Plates were then read using Luminescence optics on a ViewLux detector. Data were normalized to no-enzyme (0% activity) and no-inhibitor (DMSO; 100%) controls, and the resulting percent inhibition data were fitted to a 4-parameter Hill equation using Graphpad Prism.
Potency is the fitted concentration of half-maximal effect.

Amino acid sequences for entries named in this document (tags omitted). A change or cut given only in a name is not applied to a line headed by its entry.
UniProt Q9BV86: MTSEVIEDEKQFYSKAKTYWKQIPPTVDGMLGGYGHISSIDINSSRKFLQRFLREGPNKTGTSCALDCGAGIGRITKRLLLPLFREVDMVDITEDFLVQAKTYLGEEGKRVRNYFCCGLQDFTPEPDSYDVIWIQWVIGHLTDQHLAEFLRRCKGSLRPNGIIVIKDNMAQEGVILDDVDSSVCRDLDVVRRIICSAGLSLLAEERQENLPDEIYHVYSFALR

| SMILES | Potency | activity change, negative = inhibition |
| --- | --- | --- |
| Cc1c(OCC(F)(F)F)ccnc1CS(=O)c1nc2ccccc2[nH]1 (stereo not drawn) | inconclusive: 79.4 µM [inhibitor, single point] |  |
| COc1ccccc1CNCCCCCCNCCCCCCCCNCCCCCCNCc1ccccc1OC | inconclusive: 17.8 µM [inhibitor, partial curve] |  |
| N.N.N.N.N.N.N.N.N.N.N.N.N.N.O.O.[Ru+4].[Ru+5].[Ru+5] | active: 31.6 µM |  |
| CN[C@H]1CC[C@@H](c2ccc(Cl)c(Cl)c2)c2ccccc21 | inconclusive: 35.5 µM [inhibitor, partial curve] |  |
| COc1cc(/C=C(\C#N)C(=O)c2ccc(O)c(O)c2)cc(I)c1O |  | inactive: -22.8% |
| C[C@H](Cc1ccc(O)c(O)c1)[C@@H](C)Cc1ccc(O)c(O)c1 | active: 15.8 µM |  |
| COc1cc2c(NC3CCN(C(C)C)CC3)nc(N3CCCN(c4ccccc4)CC3)nc2cc1OCCCN1CCCC1 | inconclusive: 35.5 µM [inhibitor, partial curve] |  |
| C=Cc1c(C)c2cc3[nH]c(cc4nc(cc5nc(cc1[nH]2)C(C)=C5CCC(=O)O)C(CCC(=O)O)=C4C)c(C)c3C=C | inconclusive: 15.8 µM [inhibitor, full curve] |  |
| Cc1cccc(/C=C/c2ccccc2)n1 | inconclusive: 22.4 µM [inhibitor, partial curve] |  |
| Nc1nc(=S)c2ncn([C@H]3O[C@@H](CO)[C@@H](O)[C@@H]3O)c2[nH]1 |  | inactive: 0.577% [at 28.7 µM] |
| Cc1ccc(O)c(N=Nc2ccccc2)n1 | active: 14.1 µM |  |
| COC(=O)Nc1nc2ccc(C(=O)c3cccs3)cc2[nH]1 | inconclusive: 10 µM [inhibitor, partial curve] |  |
| CC(Cc1ccc(O)c(O)c1)C(C)Cc1ccc(O)c(O)c1 (stereo not drawn) | active: 35.5 µM |  |
| O=C1NC(c2cccc([N+](=O)[O-])c2)=CCN1c1ccccc1O | inconclusive: 14.1 µM [inhibitor, full curve, poor fit] |  |
| Oc1cc2c(cc1O)C(c1ccccc1)CNCC2 (stereo not drawn) | inconclusive: 56.2 µM [inhibitor, partial curve, poor fit] |  |
| Cc1cccc(C)c1OCC(N)C(C)C (stereo not drawn) | inconclusive: 3.55 µM [inhibitor, partial curve] |  |
| CCCCC#Cc1nc(NC)c2ncn([C@@H]3O[C@H](CO)[C@@H](O)[C@H]3O)c2n1 | inconclusive: 2 µM [inhibitor, full curve] |  |
| CN(C)CCCN1c2ccccc2Sc2ccc(Cl)cc21 |  | inactive: -9.4% |
| COc1cc2nc(N3CCOCC3)nc(NC(C)C)c2cc1OC | inconclusive: 31.6 µM [inhibitor, partial curve] |  |
| Nc1ncnc2c1ncn2[C@@H]1O[C@H](C(=O)N2CCN(CC(=O)Nc3cccc4c3CNC4=O)CC2)[C@@H](O)[C@H]1O | inconclusive: 28.2 µM [inhibitor, partial curve] |  |
| Oc1ccc(Cn2cc[nH]c2=S)cc1 |  | inactive: -4.41% |
| O=C1Nc2ccc(I)cc2/C1=C/c1cc(Br)c(O)c(Br)c1 | active: 8.91 µM |  |
| O=c1ccc2ccc(O)c(O)c2o1 |  | inactive: -5.42% |

Sorted by number of heavy atoms (rising): three of the compounds above

| SMILES | Potency | activity change, negative = inhibition |
| --- | --- | --- |
| Oc1cc2c(cc1O)C(c1ccccc1)CNCC2 (stereo not drawn) | inconclusive: 56.2 µM [inhibitor, partial curve, poor fit] |  |
| CC(Cc1ccc(O)c(O)c1)C(C)Cc1ccc(O)c(O)c1 (stereo not drawn) | active: 35.5 µM |  |
| Cc1c(OCC(F)(F)F)ccnc1CS(=O)c1nc2ccccc2[nH]1 (stereo not drawn) | inconclusive: 79.4 µM [inhibitor, single point] |  |

Reference: PubChem BioAssay AID1347147 (National Center for Advancing Translational Sciences (NCATS), 2019)
